One test deals with Tax-His6 (HTLV-1) (UniProt P03409). The test can be described thus: co-purification; band in the purified recombinant Tax preparation; SDS-PAGE, Coomassie.
The target of a further test is T1, GST-hNAP1 (human) (UniProt P55209).
T1 sequence: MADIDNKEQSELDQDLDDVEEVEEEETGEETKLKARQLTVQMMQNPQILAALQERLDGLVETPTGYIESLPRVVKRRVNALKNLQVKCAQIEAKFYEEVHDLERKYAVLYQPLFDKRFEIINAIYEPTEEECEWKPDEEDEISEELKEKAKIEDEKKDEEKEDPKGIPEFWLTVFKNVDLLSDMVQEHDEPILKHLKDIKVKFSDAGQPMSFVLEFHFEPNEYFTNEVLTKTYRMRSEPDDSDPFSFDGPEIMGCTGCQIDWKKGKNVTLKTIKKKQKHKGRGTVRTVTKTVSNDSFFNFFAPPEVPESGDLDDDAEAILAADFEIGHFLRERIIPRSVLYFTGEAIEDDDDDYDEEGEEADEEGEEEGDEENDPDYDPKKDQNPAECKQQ
The test can be described thus: pull-down; GST-fused histone chaperone (25 pmol) on 20 µl glutathione agarose beads; equal concentration of rH1.0, 16 h, 4 °C; 50 mM Tris-HCl pH 7.9, 150 mM KCl, 12.5 mM MgCl2, 1 mM EDTA, 20 % glycerol, 0.5 % NP40, 0.1 % Chaps, 100 ng/µl BSA; SDS-PAGE, Coomassie; both purified.

Amino acid sequences for entries named in this document (tags omitted). A change or cut given only in a name is not applied to a line headed by its entry. Chains listed by the source or under a name are the forms on record and can include a tag or linker.
His6-GST-SET/Taf1β (Q01105, form named): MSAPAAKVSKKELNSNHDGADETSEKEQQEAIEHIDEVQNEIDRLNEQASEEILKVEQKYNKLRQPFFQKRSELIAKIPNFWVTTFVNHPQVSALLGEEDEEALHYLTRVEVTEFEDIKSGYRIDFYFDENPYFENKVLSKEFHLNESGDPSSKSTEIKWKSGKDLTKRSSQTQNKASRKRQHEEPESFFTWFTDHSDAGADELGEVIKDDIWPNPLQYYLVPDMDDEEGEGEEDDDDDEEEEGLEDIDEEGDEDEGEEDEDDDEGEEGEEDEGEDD
UniProt P07305: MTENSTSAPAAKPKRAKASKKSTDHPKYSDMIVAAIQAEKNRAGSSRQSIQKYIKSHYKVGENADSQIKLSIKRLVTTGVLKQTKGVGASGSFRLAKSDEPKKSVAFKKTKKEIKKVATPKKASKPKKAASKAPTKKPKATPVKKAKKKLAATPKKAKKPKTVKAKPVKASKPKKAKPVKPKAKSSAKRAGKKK

For test [1], the target named is His6-GST-SET/Taf1β (human) (UniProt Q01105). Described as above.

These are yes or no findings as the source states them, for the method shown. Some entries that bind do so weakly or less than the wild type. For part of these data: Tags and fused reporters may be left off the sequences shown.

On to GroEL (from UniProt P0A6F5 1-548), for which, in the test with Tax-His6 (HTLV-1), the binding entry was “binds”.

For “linker histone rH1.0 (from UniProt P07305 1-194)”, the binding result (with GST-hNAP1 (human); in test [1]) was “binds” in each case.
